Among the data in article PMC7819943, “Rice protein-binding microarrays: a tool to detect cis-acting elements near promoter regions in rice” are binding signal values, retold here.

The list shows a part of the results.

The target in this assay is T1, OsSMF1 (Oryza sativa, UniProt Q6ZLB0 1-436).
T1 sequence: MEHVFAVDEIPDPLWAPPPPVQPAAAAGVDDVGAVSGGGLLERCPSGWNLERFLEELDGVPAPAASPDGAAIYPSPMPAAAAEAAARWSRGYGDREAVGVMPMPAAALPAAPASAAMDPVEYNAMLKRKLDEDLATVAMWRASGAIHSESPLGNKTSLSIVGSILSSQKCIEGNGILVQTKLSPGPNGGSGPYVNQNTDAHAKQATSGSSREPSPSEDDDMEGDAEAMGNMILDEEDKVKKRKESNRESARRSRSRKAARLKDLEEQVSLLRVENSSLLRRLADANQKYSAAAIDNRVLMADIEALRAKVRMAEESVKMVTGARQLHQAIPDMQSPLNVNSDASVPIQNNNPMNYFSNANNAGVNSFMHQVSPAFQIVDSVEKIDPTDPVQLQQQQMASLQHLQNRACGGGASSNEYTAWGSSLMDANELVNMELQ
Kind of assay: protein-binding microarray (RPBM); PBS, 2% BSA, 51.3 ng/ul salmon testes DNA, 50 uM zinc acetate, 200 nM TF, 25 C, 1 h; high values mean tight binding. The settings on record: protein: recombinant; tags: N-terminal polyhistidine and DsRed monomer fusion (pET32a); chain copies: 2; label: CyDye5-dUTP incorporated in the synthesized complementary strand; 3' TTTTT single-stranded linker to array surface; dsDNA, one strand shown. The essentials: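 Binding signal here means per-feature fluorescence intensity in arbitrary units. The values were read on an Axon 4000B scanner after a custom Agilent array, double-stranded by primer extension with Cy5-dUTP, was incubated with 200 nM protein at 25 °C for 1 h in PBS with 2% BSA, salmon testes DNA and 50 µM zinc acetate, then washed. The proteins were transcription factors with an N-terminal polyhistidine tag and DsRed, expressed in E. coli BL21-CodonPlus and purified on Ni–NTA.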
Consider “GGACGAAAGTTGACACGGTTTTATGAGTTTGAAGACGGGCCGGAGTCACCTAGTGCAG”, for which the binding signal was 3520 fluorescence intensity (a.u.).

With “TAAATTGACAGGTCAGCCATTCTGGCGTGGGCTGGGCCCGCGGAGTCACCTAGTGCAG”, the binding signal is 8580 fluorescence intensity (a.u.). Regarding “TCGCTCATGAGATTGGGCATGAGTCATGAGTGGACTGGAGCGGAGTCACCTAGTGCAG”, the binding signal is 5770 fluorescence intensity (a.u.). With “GTAGTACTCAAGCAAAGTCGTTAGTAGGTAAACTGCAGACCGGAGTCACCTAGTGCAG”, the binding signal is 3960 fluorescence intensity (a.u.). The same measure for “AGTGGTGGTACTTCATCAGGACTGTCATGCAAATGCTTTGCGGAGTCACCTAGTGCAG”: 4700 fluorescence intensity (a.u.); for “CATCGACCACATCCTCGCGACGTCGCGTCGCGCAAGCTAGCGGAGTCACCTAGTGCAG”: 3410 fluorescence intensity (a.u.); for “CTGGGAAATAGTGCTGCAGAGTCACTAGTTAGATCGAAATCGGAGTCACCTAGTGCAG”: 3980 fluorescence intensity (a.u.). For “AGGCAGCCCATGCTTGTTCTCTCGATGTGGTCAGCAGTAGCGGAGTCACCTAGTGCAG” the value was 3710 fluorescence intensity (a.u.).

As to “GTGTTTCATCCGTCACAGGTGATTTTGTCATCAGTGACCACGGAGTCACCTAGTGCAG”, the binding signal was 3580 fluorescence intensity (a.u.). Turning to “TCCACAAAATTTCTAAAGGACATACGGTGACACTTGGCATCGGAGTCACCTAGTGCAG”, the binding signal is 3450 fluorescence intensity (a.u.). In the case of “ACGGCGCGGCGGGGCGACCAGGAGGGGCGGGGTGGCGCGGCGGAGTCACCTAGTGCAG”, the binding signal is 4060 fluorescence intensity (a.u.). The same measure for “AAACAACACCAAAGCAAAATGTGCAGGACTGTTTTACATACGGAGTCACCTAGTGCAG”: 25600 fluorescence intensity (a.u.).

On to “GGACTTATTCCTTGCGTGGCCTTCTCCACCACCTTTCTTCCGGAGTCACCTAGTGCAG”, for which the binding signal was 6260 fluorescence intensity (a.u.). The same measure for “GTCCAATTTAATGCTGACGTTGCTGATGGAATGCCGTGGACGGAGTCACCTAGTGCAG”: 10500 fluorescence intensity (a.u.). On to “GGCTATGCAGAGGATAAAGATGACGCGATCGAACTGTAGTCGGAGTCACCTAGTGCAG”, for which the binding signal is 4150 fluorescence intensity (a.u.). For “AATGCTGCAAATACAACCAGTCAAGAATACAATGAGTCACCGGAGTCACCTAGTGCAG” the value was 4350 fluorescence intensity (a.u.). The same measure for “GGTGGCCTCCATGACCTGTCTGGATTGAGGCGCTGTCGAGCGGAGTCACCTAGTGCAG”: 3370 fluorescence intensity (a.u.). The same measure for “TTGAAGGGTTGATCAAATTTTGTTCAACCATGCAAGTGCACGGAGTCACCTAGTGCAG”: 4160 fluorescence intensity (a.u.); for “TCCAAATGTGACGTGTCTTGAAAGGCTTGAGATCCTTTTGCGGAGTCACCTAGTGCAG”: 12200 fluorescence intensity (a.u.); for “CTGCTTTAGTAGTTCTTACGTGGAAGGTTTGTTCGGAGTACGGAGTCACCTAGTGCAG”: 9910 fluorescence intensity (a.u.). In the case of “TATTCAGACGTGTGTATCCAACACACGTGTATGCGCGTTACGGAGTCACCTAGTGCAG”, the binding signal is 10800 fluorescence intensity (a.u.). For “GGTGGAACTGGTGAAATGTGAATAGTACAAACTATCAATGCGGAGTCACCTAGTGCAG” the value was 3270 fluorescence intensity (a.u.); for “GATATGGAGACATATGTATCTGACAGCACAGCACTGCCTGCGGAGTCACCTAGTGCAG”, 3940 fluorescence intensity (a.u.). In the case of “TTGCTTGCGAGCAAAGGTGGAGTTCATGCCCTCATCATATCGGAGTCACCTAGTGCAG”, the binding signal was 3710 fluorescence intensity (a.u.). The same measure for “GCTCGTACACGTCCCTCCTCCGCCTTTATTCCCTCGATATCGGAGTCACCTAGTGCAG”: 7140 fluorescence intensity (a.u.); for “CCACCGGCTACCGCGGGTGGGGTTTGGGTGCGCGTGGCCCCGGAGTCACCTAGTGCAG”: 3590 fluorescence intensity (a.u.); for “CGATCCGGAGTCCACGCCGGCACGCCGGTGGCAGCTCGCCCGGAGTCACCTAGTGCAG”: 4700 fluorescence intensity (a.u.). The same measure for “GTTGCTTAGATTCGGTTTCTGATATAATCTGACTTGTACACGGAGTCACCTAGTGCAG”: 3410 fluorescence intensity (a.u.); for “GATGCAGAGGAGTTGGCCTGGACACGGCGGTCGGACGCCTCGGAGTCACCTAGTGCAG”: 3530 fluorescence intensity (a.u.).

Turning to “GCGCGACGGCGGCCATCGTCGTCATCAACCCCAACAATCCCGGAGTCACCTAGTGCAG”, the binding signal was 4180 fluorescence intensity (a.u.). For “CCACTGCAGCACACCGACACGTGACACGTACACCCTCCCGCGGAGTCACCTAGTGCAG” the value was 12000 fluorescence intensity (a.u.). “ACCCTTAGTTGATTTACAAATTCCACGTGCACCGAAGTGGCGGAGTCACCTAGTGCAG”: the binding signal is 7760 fluorescence intensity (a.u.). For “CAGGTTTACACACTATATATGAAGTTGCACTACATATTTTCGGAGTCACCTAGTGCAG”, the binding signal is 3710 fluorescence intensity (a.u.). Regarding “GTACAGTACATGTGTACTTTGATAGATCAATTCTTCCTAACGGAGTCACCTAGTGCAG”, the binding signal was 3620 fluorescence intensity (a.u.). For “CTCGTCCTTCCACACCACGTCCAGGTCATTTCCGCCTCCTCGGAGTCACCTAGTGCAG” the value was 7510 fluorescence intensity (a.u.).

Take “GGCGTATTCCAAAAGCCTTGGCCACCATTATTGCGTGGCACGGAGTCACCTAGTGCAG”: the binding signal is 6820 fluorescence intensity (a.u.).

As for “TGGTCATAATCTCGCACCATCCACGTCGGCGTCGGCGTCGCGGAGTCACCTAGTGCAG”, the binding signal is 10200 fluorescence intensity (a.u.).

As to “CGTGCTTGGTCACAGTCACCCGATGATTTTGTCCGGTCTCCGGAGTCACCTAGTGCAG”, the binding signal was 4520 fluorescence intensity (a.u.). Consider “GCGAGGATCTTGCCGAGGTCGCTGGTGGGAGTGACGAGCACGGAGTCACCTAGTGCAG”, for which the binding signal is 4320 fluorescence intensity (a.u.). For “TCTCTTCCTCGCTCACTCCTCCCAGCGTCCTCGCAGGAGCCGGAGTCACCTAGTGCAG” the value was 4890 fluorescence intensity (a.u.). With “TGCTTTCCTCTCCAACCACGACCGCACCGCATCCCCTCCTCGGAGTCACCTAGTGCAG”, the binding signal was 3250 fluorescence intensity (a.u.). For “TTTGTCCTACGTGGCGTACGCGTGGCAATCCAGTCATAATCGGAGTCACCTAGTGCAG” the value was 20400 fluorescence intensity (a.u.).
